No constants are given. Whether binding was seen depends on the method and setting. For some assays here: A result given as binding can be weak or reduced; the word gives no strength.
What was measured:
[1] = target: T1, Burkholderia glumae lipase-specific foldase (Lif) (Burkholderia glumae) (UniProt Q05490); assay: pull-down; IMAC column retention on a NiNTA spin column: 30 ug LipA-Lif complex in 400 ul 100 mM Tris-HCl pH 8.0 (native conditions, no guHCl), 16 h at 25 C; His-tagged Lif held on the column; eluted with 400 mM imidazole; SDS-PAGE; both purified
T1 sequence: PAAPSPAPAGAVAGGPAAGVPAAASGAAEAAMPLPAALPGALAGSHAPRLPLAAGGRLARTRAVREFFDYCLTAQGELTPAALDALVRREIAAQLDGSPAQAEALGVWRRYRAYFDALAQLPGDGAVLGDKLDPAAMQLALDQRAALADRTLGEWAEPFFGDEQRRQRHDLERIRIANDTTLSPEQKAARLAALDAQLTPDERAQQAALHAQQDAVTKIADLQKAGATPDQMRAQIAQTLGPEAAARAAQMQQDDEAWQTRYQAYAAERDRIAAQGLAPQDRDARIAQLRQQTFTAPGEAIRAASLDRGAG

[2] = target: T1, Burkholderia glumae lipase-specific foldase (Lif) (Burkholderia glumae); assay: pull-down; IMAC column retention on a NiNTA spin column: 30 ug LipA-Lif complex pre-incubated 16 h at 25 C in 100 mM Tris-HCl pH 8.0 with 1.2 M guHCl (LipA as LipAg); His-tagged Lif held on the column; eluted with 400 mM imidazole; SDS-PAGE; both purified

Substance: Burkholderia glumae lipase (LipA; EC 3.1.1.3) (enzyme)
- binding [1]: binds
- binding [2]: no binding (only with 1.2 M guHCl)
